Data reported in the supplement of paper PMC5949888.
Most values lie at the floor of the assay. Slopes are relative: functional sequences can read slightly below zero.

system: Saccharomyces cerevisiae PS128 hsf1 delta, HSF1(1-493) fusion; test: growth estimate (transactivation domain function in HSF1 fusion, heat-shock survival) (a.u. (slope of normalised read count over time)); higher = stronger growth at 37°C, i.e. more transactivation activity; settings: library: random library
Experimental: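 Random 60-nt DNA library encoding peptides of up to 20 aa, fused to the C-terminus of yeast HSF1 residues 1-493 (C-terminal TAD deleted) and expressed from the native HSF1 promoter on a CEN plasmid in hsf1-deleted S. cerevisiae PS128. Cells were selected at 37°C on -trp 5-FOA plates for 0, 2, 4, 6 and 8 days and amplicons were sequenced. Growth estimate is the slope of a robust linear fit of total-sum-normalised read counts (normalised to the first time point) over time, using at least 2 replicates. Sequences are classed functional (TAD activity) above a threshold of -0.13, set from stop-codon control sequences.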

Row | Substance | growth estimate
1 | FDLNIAMYSRAADRLRGIRQ | < -0.25
2 | FDRLPFGFLLGARGYVGIGH | < -0.25
3 | FDSRKAGKALQW | -0.234
4 | FDVRGLGS | < -0.25
5 | FDVTL | -0.0423
6 | FEFGKLRPGTRLTVGHRPEA | -0.0842
7 | FEGLESRVGATAATIRYSRP | < -0.25
8 | FEHASDKKT | < -0.25
9 | FEICPLSVSVSATSERITPQ | < -0.25
10 | FEIFIDNPSRRIV | < -0.25
11 | FELVRLVCLAPQGPLTLTNA | < -0.25
12 | FEPILCVLGTAFSSFQTAPT | < -0.25
13 | FERWFDNLLPLIAGACQ | < -0.25
14 | FERYT | < -0.25
15 | FESMW | < -0.25
16 | FESREQGIIYGPLLYTSWV | < -0.25
17 | FESWKS | < -0.25
18 | FETLASRKAHEKAGSF | < -0.25
19 | FETPLFILTAKSVRAVGAHY | < -0.25
20 | FEVAISTP | < -0.25
21 | FEYVTTAALG | < -0.25
22 | FFAFCLNLLGPAGVVKLEFN | < -0.25
23 | FFGEGQFTVIDRRLGMRRPH | < -0.25
24 | FFKDWLPPSLRLDCCDDMHH | < -0.25

Row | Substance | growth estimate
25 | FFNLIKHDAAGYIGIYENH | < -0.25
26 | FFNSISLTVERIEAWDSSDA | < -0.25
27 | FFRSMVSP | -0.0082
28 | FFSTVRGPEGEFLGIPGFYR | 10.8
29 | FFSYVSNLSSDALAIREAVA | < -0.25
30 | FFTTVLGRPVVLP | < -0.25
31 | FFVRKVTDIGVMVQV | < -0.25
32 | FFWEPKESDRRYWIKQQSRR | < -0.25
33 | FFYR | < -0.25
34 | FGCIIPFGAILSFRLRLSAG | < -0.25
35 | FGCW | < -0.25
36 | FGETGWGALWGRVSSERGPR | < -0.25
37 | FGEWKRLEEARQLNPTNSGP | < -0.25
38 | FGFVFND | 2.78
39 | FGHIALVLIP | < -0.25
40 | FGHNCSGIR | < -0.25
41 | FGHPRIRLARVNSCVERNCP | < -0.25
42 | FGIIRNDEVEAGAPTGHGAA | < -0.25
43 | FGIRCVIDVEGTKLSEFLFT | < -0.25
44 | FGLLILAPRTSLPL | < -0.25
45 | FGLNHPISLRPKSS | < -0.25
46 | FGLWIKMGRAGHIARRQSLG | < -0.25
47 | FGNGPC | < -0.25
48 | FGNTTSATQ | < -0.25

Row | Substance | growth estimate
49 | FGPPKKCVNGPVAAQPVIVC | < -0.25
50 | FGQGKRSSLRNDARRGTLCP | < -0.25
51 | FGREYVGSVICIISRQRVLK | < -0.25
52 | FGRGHCGL | < -0.25
53 | FGRLLKTVGKRELDAAHAV | < -0.25
54 | FGRSDSRALQITLLKSRSCM | < -0.25
55 | FGRVVCKFLSVGANPFSFCG | < -0.25
56 | FGSIFESYAAAAGLLCGVTY | < -0.25
57 | FGSLKHAC | < -0.25
58 | FGSRLLTPEPV | < -0.25
59 | FGTENGNRIPPVQREVP | < -0.25
60 | FGTRSSLDTRDSIITGPSDP | < -0.25
61 | FGTVASRLDLEIMELGLDNT | < -0.25
62 | FGVKRL | < -0.25
63 | FGVSVTGCASEH | < -0.25
64 | FGWSKRLWILSTMRLMTQGD | < -0.25
65 | FGYAVPQTLQKFLARPPRFA | < -0.25
66 | FGYLVAFWPASRRTKLRRAA | < -0.25
67 | FHFVCRMLSGFIIDQLD | < -0.25
68 | FHGISRGGGYRSCSTGQS | < -0.25
69 | FHHDGITWPYITE | < -0.25
70 | FHHRSPDLEFLLRLFRASLT | < -0.25
71 | FHRHLIKKFYR | < -0.25
72 | FHRWFGQESLSGYNCRPAFK | < -0.25

Quoted from above, nos. 21 to 26
Row | Substance | growth estimate
21 | FEYVTTAALG | < -0.25
22 | FFAFCLNLLGPAGVVKLEFN | < -0.25
23 | FFGEGQFTVIDRRLGMRRPH | < -0.25
24 | FFKDWLPPSLRLDCCDDMHH | < -0.25
25 | FFNLIKHDAAGYIGIYENH | < -0.25
26 | FFNSISLTVERIEAWDSSDA | < -0.25

Remaining list, next part:

Row | Substance | growth estimate
73 | FHSVRWAYVCN | < -0.25
74 | FIANPSVWQVLRSAH | < -0.25
75 | FIDAGSIAYGCSGQ | < -0.25
76 | FIGC | < -0.25
77 | FIGGLSLGPC | -0.0904
78 | FIGL | < -0.25
79 | FIRASICFGRRSVLA | < -0.25
80 | FIRPDLMRRSRDIVQGGNSP | < -0.25
81 | FISDGIR | < -0.25
82 | FISSSRGAVHSHTLWLGDRG | < -0.25
83 | FISVCGRTWPLHSVLERPTA | < -0.25
84 | FISWG | < -0.25
85 | FIVQVGTVQCGFLSIAFANT | < -0.25
86 | FIWFLYRTTSNRR | < -0.25
87 | FKCRIEYKRSRFCVKV | < -0.25
88 | FKMSMGDGAFPWATVATRGT | < -0.25
89 | FKPP | -0.248
90 | FKSDYGSGRIIFILARANKS | < -0.25
91 | FKSPVTGAIQRRLGLSRRTQ | < -0.25
92 | FKTQA | < -0.25
93 | FKTTVERAQK | < -0.25
94 | FKTVAL | < -0.25
95 | FKVNAKCREVVTDYA | < -0.25
